In article PMC6021351 one finds binding data, which are given here for four substances.

By UniProt entry, the sequences of proteins in these tests, tags left out.
UniProt P49790: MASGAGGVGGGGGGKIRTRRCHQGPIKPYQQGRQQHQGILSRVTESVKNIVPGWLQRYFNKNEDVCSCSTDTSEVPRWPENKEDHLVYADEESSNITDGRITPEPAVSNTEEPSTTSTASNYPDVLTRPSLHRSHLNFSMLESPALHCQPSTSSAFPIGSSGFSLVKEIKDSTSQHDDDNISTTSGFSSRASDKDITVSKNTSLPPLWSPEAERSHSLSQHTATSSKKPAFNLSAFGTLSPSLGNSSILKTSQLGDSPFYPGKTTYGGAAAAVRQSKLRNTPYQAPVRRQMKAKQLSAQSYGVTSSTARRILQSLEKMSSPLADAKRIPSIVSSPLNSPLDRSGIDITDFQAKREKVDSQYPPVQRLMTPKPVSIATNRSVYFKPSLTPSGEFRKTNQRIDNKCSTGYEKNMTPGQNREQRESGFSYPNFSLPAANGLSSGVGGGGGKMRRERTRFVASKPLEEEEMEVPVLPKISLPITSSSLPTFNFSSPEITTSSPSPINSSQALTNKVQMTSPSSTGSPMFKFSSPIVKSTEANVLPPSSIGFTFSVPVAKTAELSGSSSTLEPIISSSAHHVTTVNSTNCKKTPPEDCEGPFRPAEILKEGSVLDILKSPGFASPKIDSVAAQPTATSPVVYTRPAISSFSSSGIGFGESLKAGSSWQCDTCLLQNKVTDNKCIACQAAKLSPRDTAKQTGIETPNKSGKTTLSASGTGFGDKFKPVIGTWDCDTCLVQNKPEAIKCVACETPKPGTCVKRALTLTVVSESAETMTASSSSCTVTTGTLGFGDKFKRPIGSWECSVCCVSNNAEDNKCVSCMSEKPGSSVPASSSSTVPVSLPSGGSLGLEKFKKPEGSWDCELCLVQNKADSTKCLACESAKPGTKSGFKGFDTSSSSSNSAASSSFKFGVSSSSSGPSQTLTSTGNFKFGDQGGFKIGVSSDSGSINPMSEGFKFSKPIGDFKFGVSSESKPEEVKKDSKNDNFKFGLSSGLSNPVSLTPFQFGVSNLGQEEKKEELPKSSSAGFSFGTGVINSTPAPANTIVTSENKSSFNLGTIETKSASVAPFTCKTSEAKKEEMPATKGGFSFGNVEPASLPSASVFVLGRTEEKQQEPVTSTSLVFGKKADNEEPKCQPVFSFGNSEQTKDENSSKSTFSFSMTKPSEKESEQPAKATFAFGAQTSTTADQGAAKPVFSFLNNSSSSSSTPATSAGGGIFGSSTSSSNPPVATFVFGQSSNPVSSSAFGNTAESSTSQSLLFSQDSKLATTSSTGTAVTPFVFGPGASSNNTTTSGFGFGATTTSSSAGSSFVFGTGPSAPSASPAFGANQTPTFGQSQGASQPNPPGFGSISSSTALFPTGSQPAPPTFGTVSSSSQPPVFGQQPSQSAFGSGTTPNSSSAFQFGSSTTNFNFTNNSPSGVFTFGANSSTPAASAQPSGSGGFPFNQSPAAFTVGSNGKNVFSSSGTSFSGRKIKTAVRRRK
UniProt Q92731: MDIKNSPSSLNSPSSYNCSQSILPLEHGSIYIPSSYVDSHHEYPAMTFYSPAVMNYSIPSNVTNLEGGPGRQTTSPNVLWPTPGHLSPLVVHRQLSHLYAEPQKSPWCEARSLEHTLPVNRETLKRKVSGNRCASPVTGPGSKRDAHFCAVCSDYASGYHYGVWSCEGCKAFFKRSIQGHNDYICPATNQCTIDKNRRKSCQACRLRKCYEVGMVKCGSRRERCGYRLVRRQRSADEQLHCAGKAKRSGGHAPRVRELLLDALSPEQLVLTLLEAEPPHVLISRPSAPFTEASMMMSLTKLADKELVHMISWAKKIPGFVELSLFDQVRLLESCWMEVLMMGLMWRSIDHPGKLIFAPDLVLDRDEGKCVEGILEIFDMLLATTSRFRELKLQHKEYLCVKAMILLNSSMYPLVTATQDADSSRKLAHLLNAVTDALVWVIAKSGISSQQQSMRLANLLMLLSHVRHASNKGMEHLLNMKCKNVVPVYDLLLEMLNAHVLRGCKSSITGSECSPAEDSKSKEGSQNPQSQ
UniProt Q09472: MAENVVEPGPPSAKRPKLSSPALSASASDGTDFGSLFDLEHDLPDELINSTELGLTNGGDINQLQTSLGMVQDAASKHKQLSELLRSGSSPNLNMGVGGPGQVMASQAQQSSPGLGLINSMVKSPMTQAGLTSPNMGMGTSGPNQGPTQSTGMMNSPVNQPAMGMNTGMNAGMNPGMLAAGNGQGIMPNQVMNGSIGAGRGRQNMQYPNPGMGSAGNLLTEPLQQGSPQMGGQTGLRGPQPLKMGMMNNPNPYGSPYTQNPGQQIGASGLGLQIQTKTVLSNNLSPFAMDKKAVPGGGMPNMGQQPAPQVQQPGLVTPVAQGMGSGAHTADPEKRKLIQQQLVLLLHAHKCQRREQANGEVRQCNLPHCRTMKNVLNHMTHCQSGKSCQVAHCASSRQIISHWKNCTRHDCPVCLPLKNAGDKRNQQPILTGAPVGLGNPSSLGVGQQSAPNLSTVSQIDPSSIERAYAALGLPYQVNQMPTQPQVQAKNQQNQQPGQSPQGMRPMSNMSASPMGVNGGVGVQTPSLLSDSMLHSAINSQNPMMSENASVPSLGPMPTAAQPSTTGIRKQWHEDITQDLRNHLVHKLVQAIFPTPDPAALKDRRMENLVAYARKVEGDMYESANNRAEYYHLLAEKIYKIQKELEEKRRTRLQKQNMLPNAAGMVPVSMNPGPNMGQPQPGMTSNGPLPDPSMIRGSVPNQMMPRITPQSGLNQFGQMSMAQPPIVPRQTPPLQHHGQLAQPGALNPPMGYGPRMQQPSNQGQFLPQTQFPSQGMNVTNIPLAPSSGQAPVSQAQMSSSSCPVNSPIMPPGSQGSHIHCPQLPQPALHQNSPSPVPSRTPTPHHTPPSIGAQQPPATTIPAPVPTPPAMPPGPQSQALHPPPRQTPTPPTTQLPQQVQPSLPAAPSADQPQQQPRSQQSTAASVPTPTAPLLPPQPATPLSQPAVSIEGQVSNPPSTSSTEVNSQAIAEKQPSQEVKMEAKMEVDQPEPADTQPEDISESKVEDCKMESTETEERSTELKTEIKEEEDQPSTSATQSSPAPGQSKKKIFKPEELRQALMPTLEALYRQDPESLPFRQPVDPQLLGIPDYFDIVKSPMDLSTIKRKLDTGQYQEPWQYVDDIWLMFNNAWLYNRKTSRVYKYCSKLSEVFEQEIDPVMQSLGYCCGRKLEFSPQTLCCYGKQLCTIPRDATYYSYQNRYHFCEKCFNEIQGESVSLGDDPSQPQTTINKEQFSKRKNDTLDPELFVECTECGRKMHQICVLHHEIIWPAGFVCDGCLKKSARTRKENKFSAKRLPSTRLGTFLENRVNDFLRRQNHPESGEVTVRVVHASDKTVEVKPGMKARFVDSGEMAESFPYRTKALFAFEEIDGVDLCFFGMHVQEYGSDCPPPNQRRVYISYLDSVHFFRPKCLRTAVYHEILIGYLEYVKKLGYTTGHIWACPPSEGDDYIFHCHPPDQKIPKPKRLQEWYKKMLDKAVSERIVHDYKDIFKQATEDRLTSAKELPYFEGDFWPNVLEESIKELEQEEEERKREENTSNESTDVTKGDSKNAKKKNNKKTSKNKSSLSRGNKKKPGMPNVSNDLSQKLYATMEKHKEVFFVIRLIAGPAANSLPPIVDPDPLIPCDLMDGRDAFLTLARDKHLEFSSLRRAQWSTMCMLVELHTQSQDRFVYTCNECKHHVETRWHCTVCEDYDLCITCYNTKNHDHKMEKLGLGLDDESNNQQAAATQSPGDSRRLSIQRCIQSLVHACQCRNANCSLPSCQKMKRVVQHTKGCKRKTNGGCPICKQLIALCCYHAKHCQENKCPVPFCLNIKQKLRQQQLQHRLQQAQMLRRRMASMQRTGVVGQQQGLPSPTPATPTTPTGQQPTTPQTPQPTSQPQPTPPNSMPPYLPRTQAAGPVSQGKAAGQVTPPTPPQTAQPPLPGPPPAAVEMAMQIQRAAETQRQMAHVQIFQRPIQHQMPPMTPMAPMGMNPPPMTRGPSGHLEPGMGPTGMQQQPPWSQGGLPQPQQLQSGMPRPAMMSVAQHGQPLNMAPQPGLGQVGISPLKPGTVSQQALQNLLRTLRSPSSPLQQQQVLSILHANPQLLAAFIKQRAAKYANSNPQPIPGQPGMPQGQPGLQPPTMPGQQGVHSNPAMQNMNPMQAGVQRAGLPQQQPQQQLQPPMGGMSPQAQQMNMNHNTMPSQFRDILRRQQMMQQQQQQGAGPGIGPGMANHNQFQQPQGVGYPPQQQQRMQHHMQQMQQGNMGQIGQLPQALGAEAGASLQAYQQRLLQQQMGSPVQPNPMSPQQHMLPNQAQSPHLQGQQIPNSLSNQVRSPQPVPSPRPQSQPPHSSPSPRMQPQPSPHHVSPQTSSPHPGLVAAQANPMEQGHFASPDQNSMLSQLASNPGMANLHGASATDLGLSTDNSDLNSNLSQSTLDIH

No constants are given. Whether binding was seen depends on the method and setting. Binding seen in cells or lysates may run through a third protein. Some entries that bind do so weakly or less than the wild type.

Assay [1] addresses Nucleoporin 153 (human (endogenous in C27IM, C38IM, C17IM and HeLa)) (UniProt P49790). Briefly: co-IP; immunoprecipitation with Nup153 antibody or with ERβ antibody (GeneTex #110607) from extracts of PCa cells (C27IM), basal or E2 10^-7M 24h; blots for Nup153, ERβ and eNOS; IgG as negative control; lysis buffer 50mM Tris-HCl pH 7.4, 250 mM NaCl, 0.1% tritonX100, 5mM EDTA, 0.3% Empigen BB.

Assay [2] shares this target. Briefly: co-IP; Nup153 and p300 in extracts of PCa cells, basal or E2 10^-7M 24h; precipitating antibody not stated; IgG as negative control.
In assay [3] the target is T1, endothelial nitric oxide synthase (human (endogenous in C27IM, C38IM, C17IM and HeLa)) (UniProt P29474).
T1 sequence: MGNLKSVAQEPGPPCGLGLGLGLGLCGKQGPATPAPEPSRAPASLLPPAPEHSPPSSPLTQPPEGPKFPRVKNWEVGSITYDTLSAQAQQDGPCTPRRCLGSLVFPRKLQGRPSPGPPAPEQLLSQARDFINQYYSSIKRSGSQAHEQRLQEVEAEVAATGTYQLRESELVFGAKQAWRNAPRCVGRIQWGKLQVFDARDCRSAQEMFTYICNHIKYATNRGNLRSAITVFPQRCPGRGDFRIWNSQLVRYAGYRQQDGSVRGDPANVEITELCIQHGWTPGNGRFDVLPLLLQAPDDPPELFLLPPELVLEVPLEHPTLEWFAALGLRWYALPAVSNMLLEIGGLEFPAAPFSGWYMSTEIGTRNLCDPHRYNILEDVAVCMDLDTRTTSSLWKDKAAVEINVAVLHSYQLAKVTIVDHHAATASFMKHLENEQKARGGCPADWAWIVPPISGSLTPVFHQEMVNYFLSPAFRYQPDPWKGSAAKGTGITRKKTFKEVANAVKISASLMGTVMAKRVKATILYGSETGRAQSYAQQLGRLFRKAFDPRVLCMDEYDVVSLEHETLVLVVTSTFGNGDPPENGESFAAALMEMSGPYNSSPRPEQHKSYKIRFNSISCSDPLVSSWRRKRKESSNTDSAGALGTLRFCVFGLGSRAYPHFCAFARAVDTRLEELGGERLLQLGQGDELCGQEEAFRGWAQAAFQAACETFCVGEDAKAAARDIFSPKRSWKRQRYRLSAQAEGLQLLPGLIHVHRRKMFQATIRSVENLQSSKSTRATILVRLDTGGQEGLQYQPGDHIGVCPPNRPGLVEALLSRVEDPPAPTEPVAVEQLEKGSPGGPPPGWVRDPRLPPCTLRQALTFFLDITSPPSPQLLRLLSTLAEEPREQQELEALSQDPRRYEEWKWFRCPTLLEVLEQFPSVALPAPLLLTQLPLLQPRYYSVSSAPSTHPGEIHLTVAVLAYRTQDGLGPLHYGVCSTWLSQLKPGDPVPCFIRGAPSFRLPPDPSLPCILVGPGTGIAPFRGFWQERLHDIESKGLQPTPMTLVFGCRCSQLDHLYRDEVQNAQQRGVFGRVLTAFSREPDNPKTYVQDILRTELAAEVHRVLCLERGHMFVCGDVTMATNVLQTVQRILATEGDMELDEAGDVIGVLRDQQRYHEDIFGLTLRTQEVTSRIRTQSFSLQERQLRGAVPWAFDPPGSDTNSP
Nature of the assay: co-IP; immunoprecipitation for eNOS from extracts of PCa (C38IM, C27IM) and BPH (C17IM) cells in basal condition, blot for Nup153; IgG as negative control; lysis buffer 50mM Tris-HCl pH 7.4, 250 mM NaCl, 0.1% tritonX100, 5mM EDTA, 0.3% Empigen BB.

The target in assay [4] is Estrogen Receptor beta (endogenous in PCa cells) (human (endogenous in C27IM)) (UniProt Q92731). Briefly: co-IP; immunoprecipitation with Nup153 antibody or with ERβ antibody (GeneTex #110607) from extracts of PCa cells (C27IM), basal or E2 10^-7M 24h; blots for Nup153, ERβ and eNOS; IgG as negative control; lysis buffer 50mM Tris-HCl pH 7.4, 250 mM NaCl, 0.1% tritonX100, 5mM EDTA, 0.3% Empigen BB.

The target of assay [5] is Nucleoporin 153 (human (endogenous in C27IM, C38IM, C17IM and HeLa)) (UniProt P49790). Briefly: co-IP; immunoprecipitation with Nup153 antibody from HeLa cells transfected with human ERβ full-length (530aa) or empty vector, before and after E2 10^-7M 24h; blots for Nup153, ERβ (CWK-F12) and eNOS; IgG as negative control.

As for “Estrogen Receptor beta (endogenous in PCa cells) (from UniProt Q92731 1-530)”, the binding entry in assay [1] is “binds”. Take “Histone Acetyl Transferase p300 (from UniProt Q09472 1-2414) (enzyme)”: the binding result in assay [2] is “binds”. Regarding “Nucleoporin 153 (from UniProt P49790 1-1475)”, the binding result in assay [3] and in assay [4] was “binds” in each case. As for “human ERβ full-length (530aa) (from UniProt Q92731 1-530) (receptor)”, the binding result in assay [5] is “binds”.
